Reference: PMC12000689
Residue numbers refer to the chain shown, from its start. Names may count otherwise. These are yes or no findings as the source states them, for the method shown. In cells and extracts the contact can be indirect. Some binding calls cover weakened binding; strength is not graded here. Values belong to the binder of their own block, whether it stands above or below them.

Experiments:
ATP9A = biological target: T1, ATP9A (UniProt O75110); assay: co-IP; lysates of HeLa cells stably coexpressing an HA-tagged and a FLAG-tagged P4-ATPase; lysis in 20 mM Hepes pH 7.4, 150 mM NaCl, 1 mM EDTA, 1% Nonidet P-40, 4°C; anti-HA antibody and protein G Dynabeads; blot with anti-HA and anti-DYKDDDDK
T1 sequence: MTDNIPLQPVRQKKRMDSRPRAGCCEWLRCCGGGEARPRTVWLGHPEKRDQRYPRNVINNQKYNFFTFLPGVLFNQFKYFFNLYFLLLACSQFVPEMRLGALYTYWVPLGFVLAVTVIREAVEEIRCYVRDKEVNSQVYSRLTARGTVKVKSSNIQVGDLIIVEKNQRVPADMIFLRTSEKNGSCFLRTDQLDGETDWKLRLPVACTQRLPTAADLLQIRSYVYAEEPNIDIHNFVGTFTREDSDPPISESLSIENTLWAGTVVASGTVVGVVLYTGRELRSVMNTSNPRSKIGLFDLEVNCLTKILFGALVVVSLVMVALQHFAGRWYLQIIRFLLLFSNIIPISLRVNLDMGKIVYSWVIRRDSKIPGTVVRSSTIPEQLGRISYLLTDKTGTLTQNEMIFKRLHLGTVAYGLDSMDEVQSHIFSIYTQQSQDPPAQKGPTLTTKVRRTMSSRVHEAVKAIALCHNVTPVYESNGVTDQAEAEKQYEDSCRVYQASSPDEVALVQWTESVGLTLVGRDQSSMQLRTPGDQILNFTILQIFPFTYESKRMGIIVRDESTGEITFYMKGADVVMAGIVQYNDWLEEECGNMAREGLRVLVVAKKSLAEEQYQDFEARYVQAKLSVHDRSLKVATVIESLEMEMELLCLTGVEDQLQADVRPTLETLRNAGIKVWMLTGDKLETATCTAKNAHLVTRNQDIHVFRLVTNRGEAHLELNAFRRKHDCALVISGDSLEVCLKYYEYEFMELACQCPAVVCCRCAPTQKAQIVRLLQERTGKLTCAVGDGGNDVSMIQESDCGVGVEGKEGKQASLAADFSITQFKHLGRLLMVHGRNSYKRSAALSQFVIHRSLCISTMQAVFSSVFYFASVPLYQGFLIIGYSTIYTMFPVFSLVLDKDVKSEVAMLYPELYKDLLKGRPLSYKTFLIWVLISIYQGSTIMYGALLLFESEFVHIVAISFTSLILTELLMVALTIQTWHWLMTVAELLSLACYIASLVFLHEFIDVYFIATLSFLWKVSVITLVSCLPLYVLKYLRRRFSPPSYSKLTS

ATP9B = biological target: T2, ATP9B (UniProt O43861); assay: as above
T2 sequence: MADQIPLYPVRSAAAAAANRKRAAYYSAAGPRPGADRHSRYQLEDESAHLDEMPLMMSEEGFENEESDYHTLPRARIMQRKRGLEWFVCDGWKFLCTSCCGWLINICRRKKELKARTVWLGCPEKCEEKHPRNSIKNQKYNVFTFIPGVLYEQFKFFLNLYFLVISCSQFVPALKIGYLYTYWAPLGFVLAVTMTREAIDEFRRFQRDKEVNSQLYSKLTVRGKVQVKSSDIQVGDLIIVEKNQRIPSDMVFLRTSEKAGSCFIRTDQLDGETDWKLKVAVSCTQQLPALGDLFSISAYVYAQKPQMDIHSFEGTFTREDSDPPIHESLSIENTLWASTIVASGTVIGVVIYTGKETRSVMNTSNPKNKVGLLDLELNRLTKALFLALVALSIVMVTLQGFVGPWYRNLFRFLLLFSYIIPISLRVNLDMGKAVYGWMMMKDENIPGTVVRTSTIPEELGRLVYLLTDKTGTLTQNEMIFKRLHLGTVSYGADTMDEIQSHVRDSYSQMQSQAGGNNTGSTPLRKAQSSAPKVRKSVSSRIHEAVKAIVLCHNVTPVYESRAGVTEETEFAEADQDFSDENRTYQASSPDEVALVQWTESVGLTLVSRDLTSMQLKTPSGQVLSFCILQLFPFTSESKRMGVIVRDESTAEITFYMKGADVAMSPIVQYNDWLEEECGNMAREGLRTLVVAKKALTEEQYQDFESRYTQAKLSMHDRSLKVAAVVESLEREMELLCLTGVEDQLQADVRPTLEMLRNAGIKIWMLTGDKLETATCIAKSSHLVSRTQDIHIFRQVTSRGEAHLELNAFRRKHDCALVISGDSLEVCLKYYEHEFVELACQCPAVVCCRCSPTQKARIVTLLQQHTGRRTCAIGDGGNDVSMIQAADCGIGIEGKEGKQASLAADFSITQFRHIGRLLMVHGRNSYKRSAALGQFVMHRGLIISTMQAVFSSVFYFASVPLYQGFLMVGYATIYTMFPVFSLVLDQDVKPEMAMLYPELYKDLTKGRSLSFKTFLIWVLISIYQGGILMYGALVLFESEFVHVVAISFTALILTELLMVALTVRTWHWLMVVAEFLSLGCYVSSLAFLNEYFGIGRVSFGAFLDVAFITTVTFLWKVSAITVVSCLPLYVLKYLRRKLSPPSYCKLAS

- binding (ATP9A): no binding
- binding (ATP9B): no binding
B1: ATP11C (protein, UniProt Q8NB49 1-1132)
chain: MQMVPSLPPASECAGEEKRVGTRTVFVGNHPVSETEAYIAQRFCDNRIVSSKYTLWNFLPKNLFEQFRRIANFYFLIIFLVQVTVDTPTSPVTSGLPLFFVITVTAIKQGYEDCLRHRADNEVNKSTVYIIENAKRVRKESEKIKVGDVVEVQADETFPCDLILLSSCTTDGTCYVTTASLDGESNCKTHYAVRDTIALCTAESIDTLRAAIECEQPQPDLYKFVGRINIYSNSLEAVARSLGPENLLLKGATLKNTEKIYGVAVYTGMETKMALNYQGKSQKRSAVEKSINAFLIVYLFILLTKAAVCTTLKYVWQSTPYNDEPWYNQKTQKERETLKVLKMFTDFLSFMVLFNFIIPVSMYVTVEMQKFLGSFFISWDKDFYDEEINEGALVNTSDLNEELGQVDYVFTDKTGTLTENSMEFIECCIDGHKYKGVTQEVDGLSQTDGTLTYFDKVDKNREELFLRALCLCHTVEIKTNDAVDGATESAELTYISSSPDEIALVKGAKRYGFTFLGNRNGYMRVENQRKEIEEYELLHTLNFDAVRRRMSVIVKTQEGDILLFCKGADSAVFPRVQNHEIELTKVHVERNAMDGYRTLCVAFKEIAPDDYERINRQLIEAKMALQDREEKMEKVFDDIETNMNLIGATAVEDKLQDQAAETIEALHAAGLKVWVLTGDKMETAKSTCYACRLFQTNTELLELTTKTIEESERKEDRLHELLIEYRKKLLHEFPKSTRSFKKAWTEHQEYGLIIDGSTLSLILNSSQDSSSNNYKSIFLQICMKCTAVLCCRMAPLQKAQIVRMVKNLKGSPITLSIGDGANDVSMILESHVGIGIKGKEGRQAARNSDYSVPKFKHLKKLLLAHGHLYYVRIAHLVQYFFYKNLCFILPQFLYQFFCGFSQQPLYDAAYLTMYNICFTSLPILAYSLLEQHINIDTLTSDPRLYMKISGNAMLQLGPFLYWTFLAAFEGTVFFFGTYFLFQTASLEENGKVYGNWTFGTIVFTVLVFTVTLKLALDTRFWTWINHFVIWGSLAFYVFFSFFWGGIIWPFLKQQRMYFVFAQMLSSVSTWLAIILLIFISLFPEILLIVLKNVRRRSARRNLSCRRASDSLSARPSVRPLLLRTFSDESNVL

- binding (ATP9A): binds
- binding (ATP9B): binds
B2: ATP9B(E272Q) (protein, UniProt O43861 1-1147)
chain: T2 sequence with E272Q
